Test results reported in PubChem BioAssay (NCATS).
The entries are a selection whose mix differs from that of the whole data set. Records with an inconclusive call do not appear. Calls of active or inactive are those of the source. Calls come from the whole dose curve; as a rule, active = well fitted curve in the direction sought with a large enough effect; inconclusive = small, poorly fitted or top-dose-only effect, or another doubt; inactive = no such curve, though single readings can be large; an effect the other way counts as inactive or inconclusive.

How the values were obtained:
[1] = BET inhibitor-based combinations targeting novel dependencies in MECOM-rearranged (r) AML: SET-2 cell line (AID 2202231); details: SET-2 AML cells viability, CellTiter-Glo luminescence, 48 h; note: nearly all actives have a fitted effect of over 35% in size
Excerpt: (§1) Ecotropic viral insertion site 1 (EVI1) is located on chromosome 3q26.2 as part of the MECOM (MDS and EVI1 complex) locus. Under normal hematopoiesis, EVI1 is a regulator of hematopoietic stem cell maintenance and self-renewal and EVI1 levels decrease as the cells differentiate. In approximately 5-10% of de novo acute myeloid leukemia (AML) EVI1 is aberrantly expressed, including Chromosomal inv(3)(q21;q26.2) or t(3;3)(q21;q26.2) alterations (MECOM-r) that account for about 50% of AML with EVI1 overexpression 31. AMLs with high levels of EVI1 have a poor prognosis and an overall survival time averaging between 10-14 months. EVI1 overexpression confers resistance in leukemia cells, highlighting the need to develop new targeted therapies for EVI1 overexpressing AMLs. […]
(§2) A collection of 2480 mechanistically annotated dugs (MIPE v5.0) was used to screen four 3q26.2 rearranged AML cell lines and three non-3q26.2 rearranged AML cell lines. […] Cell viability was determined by luminescence based, Cell Titer Glo assay (Promega). […] Luminescence readings were taken using a Viewlux (PerkinElmer) with a 2 s exposure time per plate. […] Quantitative drug activity data from dose-response curves was determined utilizing area Under the Curve (AUC) and Z-transformed AUC (Z-AUC, a mean-centering transformation applied to each individual cell-line screened).

[2] = BET inhibitor-based combinations targeting novel dependencies in MECOM-rearranged (r) AML: MV-4-11 cell line (AID 2202233); details: MV-4-11 AML viability, CellTiter-Glo luminescence, 48 h; note: nearly all actives have a fitted effect of over 45% in size
Outline: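 Cells at 500/well were exposed for 48 hr to MIPE v5.0 drugs as 11-point dose curves. Viability was read by CellTiter-Glo luminescence and normalized to DMSO and empty-well controls. Activity was expressed as AUC and per-cell-line Z-AUC.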

[3] = BET inhibitor-based combinations targeting novel dependencies in MECOM-rearranged (r) AML: HNT-34 cell line (AID 2202234); details: HNT-34 AML viability, CellTiter-Glo luminescence, 48 h; note: nearly all actives have a fitted effect of over 35% in size
Excerpt: as §1, §2

[4] = BET inhibitor-based combinations targeting novel dependencies in MECOM-rearranged (r) AML: AML-191 cell line (AID 2202236; note: nearly all actives have a fitted effect of over 35% in size); details: AML-191 viability, CellTiter-Glo luminescence, 48 h
Outline: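 AML cell lines seeded at 500 cells/well, treated with 11-point dose curves for 48 h. Viability by CellTiter-Glo luminescence, normalised to DMSO and empty wells; activity expressed as AUC and per-cell-line Z-transformed AUC.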

Measured: Potency
Potency is the fitted concentration of half-maximal effect.

CN[C@@H]1C[C@H]2O[C@@](C)([C@@H]1OC)n1c3ccccc3c3c4c(c5c6ccccc6n2c5c31)C(=O)NC4
active: [1] 0.186 µM | [2] 0.0074 µM | [3] 0.0934 µM | [4] 0.0295 µM
